From publication PMC10870498
No constants are given. Whether binding was seen depends on the method and setting. In cells and extracts the contact can be indirect. Some results given as binding are weak or reduced against the parent protein; the word gives no strength.

Amino acid sequences for entries named in this document (tags omitted).
UniProt Q09472: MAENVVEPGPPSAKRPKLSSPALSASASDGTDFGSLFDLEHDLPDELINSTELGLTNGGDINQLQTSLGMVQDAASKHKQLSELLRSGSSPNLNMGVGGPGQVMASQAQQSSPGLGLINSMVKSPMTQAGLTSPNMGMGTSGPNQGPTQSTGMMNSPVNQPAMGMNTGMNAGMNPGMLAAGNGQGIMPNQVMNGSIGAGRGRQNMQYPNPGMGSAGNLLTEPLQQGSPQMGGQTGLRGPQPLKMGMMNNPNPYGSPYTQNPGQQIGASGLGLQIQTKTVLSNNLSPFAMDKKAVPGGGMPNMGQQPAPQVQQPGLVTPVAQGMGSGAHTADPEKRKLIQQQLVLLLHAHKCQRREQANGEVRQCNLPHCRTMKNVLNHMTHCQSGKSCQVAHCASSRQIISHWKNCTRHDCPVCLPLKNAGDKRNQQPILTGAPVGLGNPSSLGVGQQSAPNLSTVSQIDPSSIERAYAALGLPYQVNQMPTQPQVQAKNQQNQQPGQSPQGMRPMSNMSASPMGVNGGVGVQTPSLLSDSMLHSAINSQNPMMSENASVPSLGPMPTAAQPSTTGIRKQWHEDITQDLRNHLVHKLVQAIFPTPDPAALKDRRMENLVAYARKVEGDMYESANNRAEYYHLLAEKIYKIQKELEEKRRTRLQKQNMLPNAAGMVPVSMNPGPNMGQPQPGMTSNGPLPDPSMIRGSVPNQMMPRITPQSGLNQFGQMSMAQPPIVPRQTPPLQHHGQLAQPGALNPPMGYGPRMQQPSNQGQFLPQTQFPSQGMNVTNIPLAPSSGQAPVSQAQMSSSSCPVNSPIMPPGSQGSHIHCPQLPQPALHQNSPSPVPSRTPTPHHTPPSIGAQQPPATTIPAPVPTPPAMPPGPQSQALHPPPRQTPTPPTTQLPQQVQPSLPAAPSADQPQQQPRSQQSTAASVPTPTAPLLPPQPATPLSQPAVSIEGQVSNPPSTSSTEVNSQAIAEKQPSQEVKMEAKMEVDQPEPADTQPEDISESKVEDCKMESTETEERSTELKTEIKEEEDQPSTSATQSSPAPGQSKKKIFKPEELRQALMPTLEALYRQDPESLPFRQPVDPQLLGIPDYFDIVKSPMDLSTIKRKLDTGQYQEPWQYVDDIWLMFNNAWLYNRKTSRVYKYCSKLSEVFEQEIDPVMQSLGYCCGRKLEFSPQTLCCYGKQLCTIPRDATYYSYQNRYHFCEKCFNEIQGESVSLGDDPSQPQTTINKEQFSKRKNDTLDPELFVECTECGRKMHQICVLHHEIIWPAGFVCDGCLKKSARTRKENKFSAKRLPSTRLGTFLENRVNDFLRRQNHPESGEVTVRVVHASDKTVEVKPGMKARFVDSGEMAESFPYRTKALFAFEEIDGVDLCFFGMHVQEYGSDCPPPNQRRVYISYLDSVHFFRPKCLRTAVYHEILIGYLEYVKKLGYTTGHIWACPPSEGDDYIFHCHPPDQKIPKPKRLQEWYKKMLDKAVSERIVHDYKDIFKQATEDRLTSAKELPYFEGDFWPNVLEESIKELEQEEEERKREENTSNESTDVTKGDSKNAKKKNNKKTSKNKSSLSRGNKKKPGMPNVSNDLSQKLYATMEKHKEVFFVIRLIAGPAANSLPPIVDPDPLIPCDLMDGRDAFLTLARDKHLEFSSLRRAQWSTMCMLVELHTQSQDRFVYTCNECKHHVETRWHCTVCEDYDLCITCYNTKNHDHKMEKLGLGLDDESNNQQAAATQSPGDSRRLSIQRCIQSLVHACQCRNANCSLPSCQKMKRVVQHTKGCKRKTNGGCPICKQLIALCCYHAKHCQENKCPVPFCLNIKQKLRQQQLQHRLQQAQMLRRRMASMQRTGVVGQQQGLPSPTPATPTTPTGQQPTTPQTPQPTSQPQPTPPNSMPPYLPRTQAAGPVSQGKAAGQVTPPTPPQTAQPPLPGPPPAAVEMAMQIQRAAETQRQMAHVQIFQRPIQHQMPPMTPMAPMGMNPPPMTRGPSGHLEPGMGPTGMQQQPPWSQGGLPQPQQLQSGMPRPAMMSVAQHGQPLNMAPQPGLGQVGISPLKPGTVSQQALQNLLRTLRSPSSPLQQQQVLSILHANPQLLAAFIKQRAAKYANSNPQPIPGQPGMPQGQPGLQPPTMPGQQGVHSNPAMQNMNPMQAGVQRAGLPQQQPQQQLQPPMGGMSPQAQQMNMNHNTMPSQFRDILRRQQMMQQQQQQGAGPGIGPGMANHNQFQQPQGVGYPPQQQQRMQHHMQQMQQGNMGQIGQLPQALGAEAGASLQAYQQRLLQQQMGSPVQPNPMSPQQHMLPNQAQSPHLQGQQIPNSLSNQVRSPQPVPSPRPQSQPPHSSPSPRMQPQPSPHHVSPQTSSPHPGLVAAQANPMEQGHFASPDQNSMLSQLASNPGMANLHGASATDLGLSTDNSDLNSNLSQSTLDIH
UniProt Q9NRC8: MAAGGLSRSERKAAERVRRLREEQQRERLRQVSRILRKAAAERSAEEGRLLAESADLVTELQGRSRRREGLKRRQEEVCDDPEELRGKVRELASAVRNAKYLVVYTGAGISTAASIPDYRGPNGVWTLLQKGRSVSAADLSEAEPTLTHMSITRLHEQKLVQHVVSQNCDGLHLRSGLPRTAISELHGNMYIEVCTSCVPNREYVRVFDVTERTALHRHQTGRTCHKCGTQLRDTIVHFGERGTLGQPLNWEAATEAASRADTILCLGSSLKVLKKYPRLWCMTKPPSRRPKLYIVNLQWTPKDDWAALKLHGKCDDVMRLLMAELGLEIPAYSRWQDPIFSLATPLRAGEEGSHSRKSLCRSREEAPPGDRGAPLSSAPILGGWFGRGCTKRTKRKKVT
UniProt Q92830: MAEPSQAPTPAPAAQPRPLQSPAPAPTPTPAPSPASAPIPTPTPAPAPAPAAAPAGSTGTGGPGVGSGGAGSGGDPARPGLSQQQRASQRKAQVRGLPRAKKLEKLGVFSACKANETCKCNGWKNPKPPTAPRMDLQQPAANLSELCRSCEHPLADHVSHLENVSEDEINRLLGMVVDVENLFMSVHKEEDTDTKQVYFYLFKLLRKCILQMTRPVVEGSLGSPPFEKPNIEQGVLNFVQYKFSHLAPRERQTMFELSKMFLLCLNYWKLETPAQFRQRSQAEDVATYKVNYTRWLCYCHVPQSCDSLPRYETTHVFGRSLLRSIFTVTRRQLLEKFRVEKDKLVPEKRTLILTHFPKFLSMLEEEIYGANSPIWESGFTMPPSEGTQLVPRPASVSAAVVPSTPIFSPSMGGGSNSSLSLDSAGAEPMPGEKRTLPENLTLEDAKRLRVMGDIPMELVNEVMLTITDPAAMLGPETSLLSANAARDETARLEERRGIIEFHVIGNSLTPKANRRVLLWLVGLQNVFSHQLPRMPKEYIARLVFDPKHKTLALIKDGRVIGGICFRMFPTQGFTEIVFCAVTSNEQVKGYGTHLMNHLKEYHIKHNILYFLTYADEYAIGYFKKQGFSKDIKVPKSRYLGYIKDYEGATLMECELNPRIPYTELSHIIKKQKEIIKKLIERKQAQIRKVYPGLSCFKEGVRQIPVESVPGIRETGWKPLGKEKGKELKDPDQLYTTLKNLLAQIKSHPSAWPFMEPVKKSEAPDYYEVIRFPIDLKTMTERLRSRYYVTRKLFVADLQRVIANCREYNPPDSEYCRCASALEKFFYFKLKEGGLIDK

target: T1, kinesin family member (KIF) 23 (human (endogenous in HEK-293T)) (UniProt Q02241); assay: co-IP; HEK-293T cells lysed on ice in RIPA buffer with protease inhibitors; KIF23, SIRT7 or IgG antibody (2 µg) overnight at 4 °C; protein A agarose beads 2 h at 4 °C; washed three times with lysis buffer; western blot
T1 sequence: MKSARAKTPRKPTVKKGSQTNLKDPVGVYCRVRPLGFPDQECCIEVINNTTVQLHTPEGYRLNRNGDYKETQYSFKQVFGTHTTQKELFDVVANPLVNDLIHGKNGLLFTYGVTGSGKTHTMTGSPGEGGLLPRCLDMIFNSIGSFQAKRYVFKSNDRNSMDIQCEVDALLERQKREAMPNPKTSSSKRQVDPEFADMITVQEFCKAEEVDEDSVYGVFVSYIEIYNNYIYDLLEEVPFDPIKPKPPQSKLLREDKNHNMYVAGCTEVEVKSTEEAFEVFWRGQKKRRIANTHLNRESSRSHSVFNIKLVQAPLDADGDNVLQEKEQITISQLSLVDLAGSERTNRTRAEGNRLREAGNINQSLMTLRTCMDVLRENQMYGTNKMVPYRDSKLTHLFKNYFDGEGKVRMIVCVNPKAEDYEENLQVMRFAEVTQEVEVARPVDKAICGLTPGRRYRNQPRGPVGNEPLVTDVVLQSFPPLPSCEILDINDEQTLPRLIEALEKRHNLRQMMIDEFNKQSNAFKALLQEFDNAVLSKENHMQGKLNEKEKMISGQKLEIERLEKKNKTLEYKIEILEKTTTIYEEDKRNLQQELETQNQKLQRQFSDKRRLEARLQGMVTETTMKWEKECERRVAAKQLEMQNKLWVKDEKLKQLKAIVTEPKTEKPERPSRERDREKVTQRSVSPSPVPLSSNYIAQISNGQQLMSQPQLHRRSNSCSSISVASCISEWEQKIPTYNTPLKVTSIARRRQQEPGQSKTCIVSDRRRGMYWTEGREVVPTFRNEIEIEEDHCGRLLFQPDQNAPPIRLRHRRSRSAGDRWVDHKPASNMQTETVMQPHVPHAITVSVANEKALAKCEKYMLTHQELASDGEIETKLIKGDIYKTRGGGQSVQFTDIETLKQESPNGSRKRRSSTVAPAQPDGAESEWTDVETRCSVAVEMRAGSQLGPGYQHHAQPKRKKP

binding | Substance
no binding | lysine acetyltransferase (KAT) 3B (from UniProt Q09472 1-2414) (enzyme)
binds | sirtuin (SIRT) 7 (from UniProt Q9NRC8 1-400) (enzyme)
no binding | lysine acetyltransferase (KAT) 2A (from UniProt Q92830 1-837) (enzyme)
